Two substances from paper PMC3650004 can be followed below.

Chains of the proteins cited; added tags and fusions are not shown.
UniProt Q14191: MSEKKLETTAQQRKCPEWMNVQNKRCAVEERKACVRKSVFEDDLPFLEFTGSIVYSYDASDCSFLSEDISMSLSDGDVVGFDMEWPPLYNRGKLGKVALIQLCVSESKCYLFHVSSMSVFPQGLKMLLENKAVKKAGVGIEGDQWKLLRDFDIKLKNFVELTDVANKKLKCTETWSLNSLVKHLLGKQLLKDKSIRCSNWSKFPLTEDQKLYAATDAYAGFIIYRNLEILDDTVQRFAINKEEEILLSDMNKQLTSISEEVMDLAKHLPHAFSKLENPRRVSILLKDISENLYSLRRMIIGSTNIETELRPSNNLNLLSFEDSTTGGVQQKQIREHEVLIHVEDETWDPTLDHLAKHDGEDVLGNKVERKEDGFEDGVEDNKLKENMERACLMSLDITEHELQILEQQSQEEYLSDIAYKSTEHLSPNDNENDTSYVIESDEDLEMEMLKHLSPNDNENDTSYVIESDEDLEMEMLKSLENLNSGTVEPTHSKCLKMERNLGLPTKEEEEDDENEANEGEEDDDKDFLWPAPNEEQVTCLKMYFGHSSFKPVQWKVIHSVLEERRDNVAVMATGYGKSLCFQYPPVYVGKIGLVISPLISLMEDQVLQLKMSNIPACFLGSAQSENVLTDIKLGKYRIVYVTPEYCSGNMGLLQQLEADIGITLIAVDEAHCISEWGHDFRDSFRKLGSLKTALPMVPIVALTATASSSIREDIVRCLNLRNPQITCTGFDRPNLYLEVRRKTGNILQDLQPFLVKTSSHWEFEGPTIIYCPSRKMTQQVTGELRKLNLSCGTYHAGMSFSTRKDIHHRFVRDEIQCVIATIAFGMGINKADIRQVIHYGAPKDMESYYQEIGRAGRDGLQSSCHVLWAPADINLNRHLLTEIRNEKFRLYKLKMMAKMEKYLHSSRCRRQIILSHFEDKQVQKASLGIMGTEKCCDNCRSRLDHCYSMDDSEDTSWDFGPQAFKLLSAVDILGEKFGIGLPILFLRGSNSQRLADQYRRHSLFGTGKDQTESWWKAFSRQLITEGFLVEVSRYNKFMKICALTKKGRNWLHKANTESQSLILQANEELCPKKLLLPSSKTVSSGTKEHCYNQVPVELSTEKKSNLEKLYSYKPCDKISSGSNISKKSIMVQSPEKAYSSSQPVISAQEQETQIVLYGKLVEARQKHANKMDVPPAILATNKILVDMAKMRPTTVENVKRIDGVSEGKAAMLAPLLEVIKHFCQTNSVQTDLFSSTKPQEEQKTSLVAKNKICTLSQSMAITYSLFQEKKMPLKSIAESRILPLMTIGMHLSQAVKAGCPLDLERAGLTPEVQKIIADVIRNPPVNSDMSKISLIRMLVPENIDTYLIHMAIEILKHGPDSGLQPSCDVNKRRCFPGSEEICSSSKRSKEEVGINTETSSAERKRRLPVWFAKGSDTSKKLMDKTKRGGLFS
UniProt Q9Y5B9: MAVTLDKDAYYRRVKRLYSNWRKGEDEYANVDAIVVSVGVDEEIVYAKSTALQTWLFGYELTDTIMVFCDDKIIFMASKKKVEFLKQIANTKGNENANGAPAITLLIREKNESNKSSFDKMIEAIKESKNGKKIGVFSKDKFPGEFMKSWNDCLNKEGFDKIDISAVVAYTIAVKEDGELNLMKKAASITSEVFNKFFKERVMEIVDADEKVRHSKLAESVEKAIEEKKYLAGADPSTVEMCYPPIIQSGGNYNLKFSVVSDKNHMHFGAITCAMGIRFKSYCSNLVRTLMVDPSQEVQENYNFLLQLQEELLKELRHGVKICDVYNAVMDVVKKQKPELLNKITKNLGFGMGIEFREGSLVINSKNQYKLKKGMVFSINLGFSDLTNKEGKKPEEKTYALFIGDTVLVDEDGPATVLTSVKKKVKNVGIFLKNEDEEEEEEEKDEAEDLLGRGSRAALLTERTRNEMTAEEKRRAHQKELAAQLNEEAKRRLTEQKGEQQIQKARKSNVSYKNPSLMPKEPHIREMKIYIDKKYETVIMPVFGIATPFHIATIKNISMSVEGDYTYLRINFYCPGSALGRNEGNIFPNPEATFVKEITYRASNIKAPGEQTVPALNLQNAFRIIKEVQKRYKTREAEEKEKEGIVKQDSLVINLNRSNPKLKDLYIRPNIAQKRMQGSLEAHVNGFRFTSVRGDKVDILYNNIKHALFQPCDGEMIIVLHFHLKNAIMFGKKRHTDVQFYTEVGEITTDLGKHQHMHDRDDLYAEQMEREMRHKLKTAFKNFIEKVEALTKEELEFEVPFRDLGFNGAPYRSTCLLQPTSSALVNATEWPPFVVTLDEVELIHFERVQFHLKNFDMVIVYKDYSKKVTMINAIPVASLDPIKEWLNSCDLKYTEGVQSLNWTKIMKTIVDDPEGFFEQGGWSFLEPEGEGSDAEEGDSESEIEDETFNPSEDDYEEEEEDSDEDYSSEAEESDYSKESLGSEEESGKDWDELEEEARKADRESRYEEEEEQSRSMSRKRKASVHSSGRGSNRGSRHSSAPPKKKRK

These are yes or no findings as the source states them, for the method shown. Binding seen in cells or lysates may run through a third protein. Some entries that bind do so weakly or less than the wild type.

For assay [1], the target named is T1, SMARCAL1 (endogenous) (human (endogenous in HeLa)) (UniProt Q9NZC9).
T1 sequence: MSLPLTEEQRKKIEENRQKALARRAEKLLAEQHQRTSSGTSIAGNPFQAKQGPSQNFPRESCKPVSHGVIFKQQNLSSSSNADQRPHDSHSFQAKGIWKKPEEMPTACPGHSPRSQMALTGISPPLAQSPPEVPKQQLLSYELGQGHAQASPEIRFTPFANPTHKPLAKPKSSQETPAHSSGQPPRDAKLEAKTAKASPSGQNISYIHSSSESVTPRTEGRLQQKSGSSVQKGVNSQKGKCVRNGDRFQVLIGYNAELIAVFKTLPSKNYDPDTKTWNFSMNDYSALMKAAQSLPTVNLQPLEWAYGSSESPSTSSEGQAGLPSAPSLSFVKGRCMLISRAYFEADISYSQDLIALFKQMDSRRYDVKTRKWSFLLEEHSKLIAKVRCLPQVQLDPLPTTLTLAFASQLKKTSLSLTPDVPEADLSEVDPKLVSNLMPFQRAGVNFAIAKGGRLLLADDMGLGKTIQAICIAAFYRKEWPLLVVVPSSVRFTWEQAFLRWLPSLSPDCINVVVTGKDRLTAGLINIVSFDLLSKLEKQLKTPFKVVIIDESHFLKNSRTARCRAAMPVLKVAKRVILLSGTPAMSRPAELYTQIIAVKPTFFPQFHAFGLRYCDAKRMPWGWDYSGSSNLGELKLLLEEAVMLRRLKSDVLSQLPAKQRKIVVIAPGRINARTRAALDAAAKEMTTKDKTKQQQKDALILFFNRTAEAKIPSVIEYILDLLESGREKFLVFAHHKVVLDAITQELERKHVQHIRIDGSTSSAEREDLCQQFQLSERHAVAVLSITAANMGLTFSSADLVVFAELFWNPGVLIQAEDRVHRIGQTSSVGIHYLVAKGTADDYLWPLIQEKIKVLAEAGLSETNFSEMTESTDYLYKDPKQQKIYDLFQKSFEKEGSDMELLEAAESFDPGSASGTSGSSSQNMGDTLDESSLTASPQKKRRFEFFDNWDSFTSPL
The experiment in a line: co-IP; SMARCAL1-909 antibody immunoprecipitates from HeLa nuclear extracts, immunoblot; cells mock treated or 2 mM HU for 16 h.

Assay [2] deals with WRN helicase (endogenous) (human (endogenous in HeLa and HEK293T)) (UniProt Q14191). The assay is described as follows: co-IP; WRN antibody immunoprecipitates from HeLa nuclear extracts, immunoblot.

With “SPT16 (endogenous) (from UniProt Q9Y5B9 1-1047)”, the binding result in assay [1] is recorded as “binds”. As for “DNA-PKcs (endogenous) (from UniProt P78527 1-4128)”, in assay [2], the binding result is recorded as “binds”.
